Results are given in words; binding and its absence hold for the method and conditions named.
Key:
Experiment in all cases: SPR Biacore 4000, captured mAb, 25C
[1] = target: Celery (Api g 2) (Celery)
[2] = target: Carrot (Dau c 1.2) (Carrot)
[3] = target: White Oak (Que a 1) (White Oak)

Measured: binding

B1: H4H17001P (antibody, human IgG4, V domains shown)
VH: QVQLVESGGGLVKPGGSLRLSCAASGFTFSDYYMNWIRQAPGKGLEWISLISSSGSAIYYSDSVKGRFTISRDNARKSLYLQVNSLRAEDTAVYYCARDRGEWALGAYYYGLDVWGQGTTVTVSS
VL: DIVMTQSPLSLPVTPGEPASISCRSSQSLLHSDGYNYLDWYLQKSGQSPQLLIYLGSNRASGVPDRFSGSGSGTDFTLKISRMEAEDVGVYYCMQALQTPYTFGQGTKLEIK
no binding (tested: 100 nM): all assays above

B2: H4H16991P (antibody, human IgG4, V domains shown)
VH: QVQLVQSGAEVRKPGASVKVSCKASGYTFTGYYLHWVRQAPGQGLEWMGLINPNTGGTNFAQKFQGRVTMTRDSSISAAYMELSRLRSDDTAVYYCARQHWNRYFDNWGQGTLVTVSS
VL: DIQMTQSPSTLSASVGDRVTITCRASQSVGNWLAWYQQKPGKAPKLLIQEASSIESGVPSRFSGSGSGTEFTLIVSSLQPDDFATYYCQQYNSYSWTFGHGTKVEIK
no binding (tested: 100 nM): all assays above

B3: H4H17031P (antibody, human IgG4, V domains shown)
VH: QVQLQQWGAGLLKPSETLSLTCVVYGESFGNYHWNWIRQSPGKRLEWIGEINQNGHTNYNPSLKSRVTISVDTSKIQFSLRLNSVTAADTAVYFCARGHNYVNSYFGLDVWGQGTTVTVSS
VL: EIVMTQSPATLSVSPGERATLSCRTSQSVSISLAWYQRKPGQAPRLLIFGSSTRATGVPARFSGSGSGTEFTLTISSLQSEDFAVYYCQQYNNWPYTFGQGTKLEIK
no binding (tested: 100 nM): all assays above

B4: H4H17015P (antibody, human IgG4, V domains shown)
VH: QVQLQESGPGLVKPSQTLSLTCTVSGGSISSADHYWSWIRQQPGKGLEWIGYISYRGTTYYNPTLESRVSISVDTFKNQFSLMLHSVTVADTAVYYCAKVLQGLVRFRDYGFDVWGQGTTVTVSS
VL: DIQLTQSPPFLSASVGDRVTITCWASQDISSYLAWYQQNPGKSPKLLIYDAFTLHTGVPSRFSGSGSGTEFTLTISSLQPEDFATFYCQHLYSFPFTFGPGTKVDIK
no binding (tested: 100 nM): all assays above

B5: H4H17033P (antibody, human IgG4, V domains shown)
VH: QVQLVQSGAEVKKPGASVKVSCKASGYTFAAHYMHWVRQAPGQGLEWMGWINTYTGGTNYGQKFQGRVTMTRDTSITTAYMELSRLRSDDTAVYYCARDRRNWNFVFEYWGQGTLVTVSS
VL: DIQMTQSPSSLSASVGDRVTISCRASQNIKNYLNWYQQKPGKAPKLLIYEASNLQSGAPSRFSGSGSGTDFTLTISSLEPEDFATYYCQQSFSIPWTFGQGTKVEIK
no binding (tested: 100 nM): all assays above

B6: H4H16946P (antibody, human IgG4, V domains shown)
VH: EVQLVESGGGLVQPGGSLRLSCVASGFTFSNYDMNWVRQAPGEGLEWISYISYSDHNIYYIDSVKGRFTISRDNAKNSLYLQMNSLRAEDTAIYYCAREALASSSFDYWGQGTLVTVSS
VL: EIVMTQSPATLSVSPGERVTLSCRASQSVSGNLAWYQQKPGQAPRLLIYSASTGATGVPARFSGSGSGTEFTLTISSLQSEDFALYYCQQYNKWPRTIGQGTKVEIK
no binding (tested: 100 nM): all assays above

B7: H4H16960P (antibody, human IgG4, V domains shown)
VH: QLQLQESGPGLVRPSETLSLTCTVSGGSISSSNYWWGWIRQPPGKGLEWIGSIYYSGITYYNPSLKSRVTISADTSKDQFSLKLRSVTAADTAVYYCAKLEWLRLDFWGQGTTVTVSS
VL: DIQMTQSPSSVSASVGDRVTITCRASQGISSWLVWYQQKPGKVPKLLIYAASSLQSGVPLRFSGSGSGTDFTLTISSLQPEDFATYYCQQAKSFPLTFGQGTRLEIK
no binding (tested: 100 nM): all assays above

B8: H4H16987P (antibody, human IgG4 S228P, kappa, V domains shown)
VH: EVQLVESGGGLVQPGGSLRLSCAASGFTVSSNSMSWVRQAPGEGLEWVSVIFSGGITYYSDSVKGRFTISRHNSKNTLYLQMNSLRTEDTAVYYCARHSNWNFDAFDIWGQGTMVTVSS
VL: DIQMTQSPSSLSASVGDRVTITCRASQSFDTYLNWYQQKPGKAPNLLIYATSSLQSGVPSRFSGSGSGTDFTLTISSLQPEDFGTYYCQQSYSIPYTFGQGTKLEIKR
no binding (tested: 100 nM): all assays above

B9: H4H17027P (antibody, human IgG4, V domains shown)
VH: EVQLVESGGGLVQPGGSLRLSCAASGFTFRNYAMHWVRQAPGEGLEWVAAIYRNSDSIDYADSVKGRFTISRDNAKNSLYLQMNSLKTEDTALYYCAKDEGFLEYFDSWGQGTLVTVSS
VL: EIVLTQSPGTLSLSPGERASLSCRASQSVSSSFLAWYQQKPGQAPRLLIYGVSSRFIGIPDRFSGGGSGTDFTLTITRLEPEDFAVYYCQQYGRSPWTFGQGTKVEIK
no binding (tested: 100 nM): all assays above

B10: H4H16950P (antibody, human IgG4, V domains shown)
VH: QVQLVQSGAEVKKPGASVKVSCKTSGYTFTNYGITWVRQAPGQGLEWMGWISAYNGNTNYAQNVQGRVTMTTDTSTSTAYMEVRSLRSDDTAVYYCARRSSMLHFQHWGQGTLVTVSS
VL: DIVMTQSPDSLAVSLGERATINCKSSQHVLYDSSNENYLAWFQQKPGQPPKLLIYWASTRESGVPDRFSGSGSGTDFTLTISSLQAEDVAVYYCQQYSSAPYTFGQGTKLEIK
no binding (tested: 100 nM): all assays above

B11: H4H17028P (antibody, human IgG4, V domains shown)
VH: QVQLVESGGGVVQPGRSLRLSCAASGFTFSRYAIHWVRQAPGKGLEWVAVISYDGDDKYYGDSVKGRFTISRDNSKTMVYLHMNSLRTEDTAVYYCAKDGYSLYGKDYFDYWGQGTLVTVSS
VL: EIVLTQSPGTLPLSPGERATLSCRASQSITNSYLAWYQQKPDQAPRLLIYGASSRATGIPDRFSGSESGTDFTLTISRLEPEDFAVYYCQQYVRSPWTFGQGTKVEIK
no binding (tested: 100 nM): all assays above

Source: US20180346555A1
